Test results published in PubChem BioAssay AID1471 (National Center for Advancing Translational Sciences (NCATS), 2008).
The whole screen tested about 230,000 compounds, of which about 310 (0.13%) were called active. The shares of active, inactive and inconclusive entries below differ from those in the screen. Calls follow the shape of the dose curve; as a rule, active = well fitted activation curve with a large enough effect; inconclusive = small, poorly fitted or top-dose-only effect; inactive = no such curve, though single readings can be large or run the other way. A potency beside an inconclusive call is a rough fit, not a confirmed value.

Test: qHTS Multiplex Assay to Identify Dual Action Probes in a Cell Model of Huntington: Cytoprotection (ATP); also: nearly all actives have a fitted effect of over 45% in size;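 as to cytoprotection (ATP increase): toxic huntingtin expression switched on by the ecdysone agonist tebufenozide; % of control where 0% means no effect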
Details: PC12 HTT-Q103 induced, ATP luminescence, 40 h; cytoprotection (ATP increase): at 56.4 µM (top of the series) unless noted
Summary of the method: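 PC12 cells stably carrying ecdysone-inducible Htt exon 1 (Q103)–GFP were induced with 100 nM tebufenozide (final) alongside library compounds in a dose series. Cytoprotection was scored as retained ATP by ATPlite luminescence.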
Potency is read from the fitted curve at half-maximal effect.

| Structure (SMILES) | cytoprotection (ATP increase) | Potency |
| --- | --- | --- |
| CCOc1ccc(C2C(C(=O)c3ccco3)=C(O)C(=O)N2Cc2cccnc2)cc1 (stereo not given) | inactive: 5.12% | – |
| COC(=O)CN1C(=S)N(c2ccc(OC)cc2)C(=O)C1CC(=O)Nc1ccc(F)cc1 (stereo not given) | – | inconclusive: 5620 nM [activator, single point] |
| COc1ccc2c(c1-c1c3c(cc(Br)c1OC)CCCC3)CCCC2 | – | inconclusive: 4470 nM [activator, single point] |
| O=C(CN1C(=O)c2ccccc2S1(=O)=O)N1CCN(c2ccccc2)CC1 | – | inconclusive: 31600 nM [activator, single point] |
| O=C(CSc1ncccn1)N/N=C/c1cccs1 | – | inconclusive: 447 nM [activator, partial curve] |
| N/C(=N\OC(=O)CCCOc1ccccc1)c1ccccc1 | – | inconclusive: 5010 nM [activator, single point] |
| CCCCCCC#CC1C=CC(OC(=O)OCC)C(COC(=O)OCC)O1 (stereo not given) | – | active: 2000 nM |
| O=C(CNC(c1ccccc1)c1ccccc1)Nc1c(F)cccc1F | – | active: 1260 nM |
| NNc1nc2cccnc2n(CCNc2ncc(C(F)(F)F)cc2Cl)c1=O | inactive: -62.5% | – |
| CCNc1nc(NCC)n2c(SC(C(=O)Nc3cc(Cl)cc(Cl)c3)c3ccccc3)nnc2n1 (stereo not given) | – | inconclusive: 794 nM [activator, partial curve] |
| O=C(NCc1ccco1)C(=S)N1CCCC1 | – | inconclusive: 3550 nM [activator, partial curve] |
| CCS(=O)(=O)N1CCN(S(=O)(=O)c2ccccc2[N+](=O)[O-])CC1 | – | inconclusive: 31600 nM [activator, single point] |
| N#Cc1cnc(Sc2ccccc2)nc1 | – | inconclusive: 12600 nM [activator, partial curve] |
| CSc1ccc(Cl)c(C(=O)NCc2ccco2)c1 | inactive: 1.82% | – |
| COc1ccc(O)c(C=NCC(C)N=Cc2cc(OC)ccc2O)c1 (stereo not given) | – | inconclusive: 35500 nM [activator, single point] |
| CCc1cc2c(nc1CC)CCN(CC/C(C)=N/OC[C@H]1O[C@H](c3ccccc3)C=C[C@@H]1Oc1ccc(OC)cc1)C2 | inactive: -33.8% [at 10 µM] | – |
| CCCNC(=O)N1CCC(C(=O)c2ccc(Cl)cc2)CC1 | – | inconclusive: 4470 nM [activator, partial curve, poor fit] |
| O=C1[C@H]2[C@H](ON3CCCC[C@H]23)C(=O)N1c1cccc(C(F)(F)F)c1 | inactive: -20.9% | – |
| C[C@@H](O)C#C[Si](C)(C)c1ccccc1 | – | inconclusive: 3550 nM [activator, single point] |
| COc1ccccc1Cc1nc(-c2ccncc2)no1 | inactive: 9.96% [at 10 µM] | – |
| COc1ccc(-c2csc(N3CCN(C(=O)c4ccccc4)CC3)n2)cc1 | – | inconclusive: 631 nM [activator, partial curve] |
| O=C(CCCOc1ccc(Cl)cc1Cl)NCc1ccccn1 | – | inconclusive: 1120 nM [activator, single point] |
| Cc1noc(C)c1CN(C(=S)NC1CC2CCC1C2)c1ccccc1 (stereo not given) | – | inconclusive: 5620 nM [activator, single point] |
| Nc1nnc(CC(=O)N/N=C/c2cc([N+](=O)[O-])cc(Br)c2O)s1 | – | inconclusive: 11200 nM [activator, single point] |

5 entries from above in a different format:
Structure (SMILES)	cytoprotection (ATP increase)	Potency
O=C1[C@H]2[C@H](ON3CCCC[C@H]23)C(=O)N1c1cccc(C(F)(F)F)c1	inactive: -20.9%	–
C[C@@H](O)C#C[Si](C)(C)c1ccccc1	–	inconclusive: 3550 nM [activator, single point]
COc1ccccc1Cc1nc(-c2ccncc2)no1	inactive: 9.96% [at 10 µM]	–
COc1ccc(-c2csc(N3CCN(C(=O)c4ccccc4)CC3)n2)cc1	–	inconclusive: 631 nM [activator, partial curve]
O=C(CCCOc1ccc(Cl)cc1Cl)NCc1ccccn1	–	inconclusive: 1120 nM [activator, single point]

Next part:

| Structure (SMILES) | cytoprotection (ATP increase) | Potency |
| --- | --- | --- |
| COc1ccccc1N(C)S(=O)(=O)c1ccc(C(=O)OCC(=O)c2c[nH]c3ccccc23)cc1 | inactive: 3.92% [at 0.074 µM] | – |
| O=C(CSc1nnnn1Cc1ccccc1)c1ccccc1 | inactive: -8.24% [at 10 µM] | – |
| O=C(O)C1C2C=CC(O2)C1C(=O)Nc1ccc2c(c1)OCCO2 (stereo not given) | inactive: 15% [at 10 µM] | – |
| CN(N=O)C(=O)N[C@H]1[C@@H](O)[C@H](O)[C@H](CO)O[C@@H]1O | – | inconclusive: 50.1 nM [activator, full curve, poor fit] |
| Cc1ccc2cc(C=C(C#N)C#N)c(N3CCCCC3)nc2c1 | inactive: -43.6% | – |
| CCc1ccc(OCc2n[nH]c(=S)n2C(C)CCCC(C)C)cc1 (stereo not given) | inactive: -131% | – |
| CCCN1C(=O)S/C(=C\c2ccc(N3CCOCC3)cc2C)C1=O | inactive: -5.3% | – |
| CSc1nc2sccc2c(=O)[nH]1 | – | inconclusive: 708 nM [activator, single point] |
| CN(c1ccccc1)S(=O)(=O)c1cccc(NC(=O)c2cc(=O)c3ccccc3o2)c1 | inactive: -123% | – |
| C/C(=N\NC(=O)c1ccccc1[N+](=O)[O-])c1ccc(Br)s1 | – | inconclusive: 35500 nM [activator, single point] |
| Cc1ccc(C2CC(c3cccc(NS(C)(=O)=O)c3)=NN2S(C)(=O)=O)cc1 (stereo not given) | – | inconclusive: 891 nM [activator, partial curve] |
| Cn1c(CN2CCN(c3cccc(Cl)c3)CC2)nc2ccccc21 | – | inconclusive: 1260 nM [activator, single point] |
| CCOC(=O)c1c(NC(=O)CCC(=O)N2CCOCC2)sc2c1CC(C)(C)OC2 | inactive: -9.25% | – |
| Cc1cc(C)cc(Nc2ccc([N+](=O)[O-])nc2[N+](=O)[O-])c1 | – | inconclusive: 35500 nM [activator, single point] |
| CC#CCN1c2ccccc2[C@]23C[C@@H](C(=O)OC)N(S(=O)(=O)c4ccc(OC)cc4)C2=NC(C(=O)OC)=C(C(=O)OC)[C@H]13 | – | inconclusive: 5620 nM [activator, single point] |
| CCN1CCC[C@@H](OC(=O)C(c2ccccc2)c2ccccc2)C1 | – | inconclusive: 794 nM [activator, partial curve] |
| CC/C=C\C/C=C\C/C=C\CCCCCCCCCC(=O)O | – | inactive |
| O=C(COC(=O)c1ccc2c(c1)S(=O)(=O)c1ccccc1C2=O)NC1CC1 | inactive: -5.67% [at 10 µM] | – |
| Cc1nc2cnc(N(C)C)nc2n(C[C@H]2CCCO2)c1=O | inactive: -23.3% | – |
| CN1CCN(Cc2ccc(Sc3ccc(Cl)cc3)c([N+](=O)[O-])c2)CC1 | – | inconclusive: 1580 nM [activator, partial curve] |
| CS(=O)(=O)N1CCN(C(=O)c2cc(-c3cccnc3)nc3ccc(Br)cc23)CC1 | – | inconclusive: 31600 nM [activator, single point] |
| COC(=O)C/C=C\[C@@H](C)[C@@H](/C=N\O[C@@H](C)c1cn([C@H]2COC[C@H]2O)nn1)NS(=O)(=O)c1ccc(C)cc1 | – | inconclusive: 316 nM [activator, partial curve, poor fit] |
| CCc1cccc(N(C(=O)c2csnn2)C(C(=O)NC(C)(C)C)c2ccncc2)c1 (stereo not given) | – | inconclusive: 631 nM [activator, single point] |
| O=c1/c(=C/c2ccco2)sc2nc(-c3ccccc3Br)nn12 | inactive: -6.39% | – |

| Structure (SMILES) | cytoprotection (ATP increase) | Potency |
| --- | --- | --- |
| CCN(CC)C(=O)Cn1c(=O)oc2ccccc21 | – | inconclusive: 5620 nM [activator, single point] |
| COc1ccccc1[C@@H]1C(c2ccc(F)cc2)=NN(c2ccccc2)[C@H]1C(=O)N1CCOC1=O | – | inconclusive: 1000 nM [activator, full curve, poor fit] |
| N#Cc1cccc(NC(=O)N2CCCC3(CCN(C(=O)c4ccncc4)CC3)C2)c1 | – | inconclusive: 25100 nM [activator, partial curve] |
| COc1ccccc1NC(=S)NC(=O)c1c(-c2ccccc2Cl)noc1C | inactive: 5.35% | – |
| Cc1cn(C2OC[C@@H](O)[C@@H]2CO)c(=O)[nH]c1=O (stereo not given in full) | – | inconclusive: 2820 nM [activator, single point] |
| S=c1nc(-c2cc(Cl)ccc2Cl)[nH][nH]1 | – | inconclusive: 2820 nM [activator, single point] |
| c1csc(C2=Nn3c(nnc3-c3ccncc3)SC2)c1 | – | active: 25100 nM |
| O=C(CNC(=O)c1ccccc1O)N/N=C/c1cc(Br)ccc1OC(=O)/C=C/c1ccco1 | inactive: -172% | – |
| C=CCn1c(-c2cccc3ccccc23)n[nH]c1=S | – | inconclusive: 5620 nM [activator, single point] |
| Nc1nnc(CSCc2ccccc2Cl)s1 | inactive: 29.9% [at 10 µM] | – |
| Cc1c(NC(=O)COC(=O)c2c3c(nc4ccccc24)CCCC3)c(=O)n(-c2ccccc2)n1C | – | inconclusive: 2000 nM [activator, partial curve] |
| COc1ccc(OC)c(-n2c(-c3cc(-c4ccco4)[nH]n3)n[nH]c2=S)c1 | inactive: -23.1% [at 10 µM] | – |
| O=C1c2ccccc2C(=O)N1CN(C(=O)COc1ccccc1)c1ccccc1 | – | inconclusive: 1000 nM [activator, partial curve] |
| CCOC(=O)c1c(/N=C/c2ccc(C)cc2O)sc2c1CCC2 | inactive: 13.2% [at 10 µM] | – |
| Cc1ccc(C(=O)NCCn2cc(SCC(=O)Nc3cc(C)on3)c3ccccc32)cc1 | inactive: -51% | – |
| CC(C)OC(=O)c1cc2ccccc2[nH]1 | – | inconclusive: 5620 nM [activator, single point] |
| Cc1cc(C)nc(/N=C(\N)Nc2ccc(SC(F)F)cc2)n1 | inactive: 0% [at 10 µM] | – |
| O=C(COC(=O)CCSc1ccccc1)NCc1ccccc1 | – | inconclusive: 5620 nM [activator, single point] |
| O=C(CNC(=O)c1ccccc1)NCc1ccc(Cl)cc1 | – | inconclusive: 316 nM [activator, partial curve, poor fit] |
| CC1(C)Cc2c(c(-c3ccco3)[nH]c(=O)c2C#N)CO1 | – | inconclusive: 2820 nM [activator, single point] |
| CC(C)[C@H]1COC(c2cccc([N+](=O)[O-])c2)=N1 | – | inconclusive: 1120 nM [activator, full curve] |
| CC(C(=O)O)c1ccc2c(c1)[nH]c1ccc(Cl)cc12 (stereo not given) | – | active: 355 nM |
